In PubChem BioAssay AID1347426 (Functional Genomics Laboratory (NCATS/FGL), 2020):
The whole screen tested about 31,000 sequences, of which about 1,400 (4.5%) were called active.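 Rule for the calls: active = median seed-adjusted z-score above 1 or below -1; inactive = the rest.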 Some of the results follow.

Assay: Novel Modifiers of Survival Motor Neuron (SMN) Protein: Gene Identification via Genome-wide siRNA Screen;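 note: luminescence tracks full-length SMN protein made from the SMN2 reporter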
Settings: HEK293T SMN2-luciferase reporter, siRNA knockdown, 72 h; actives lie on both sides
Method in brief: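 Genome-wide siRNA screen (10418 genes, 3 siRNAs each, 1 pmol per well) by reverse transfection in HEK293T cells stably carrying an SMN2-luciferase reporter; luminescence after 72 hours, normalized to negative-control siRNA, log10-transformed, MAD-scored.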
For GAAUUAUCCCAUCUCAGUATT against MYOZ2, the median seed-adjusted z-score was inactive: 0.315. In the case of GGACAGAGGGCAACUAUAATT against KCNV2, the median seed-adjusted z-score is reported as active: -1.13. For CAGCUAUGGUUCUUCCGAUTT against SLC35B2, the median seed-adjusted z-score was inactive: -0.313. With UCUCAGAUCUCUUCCCAGATT against ROBO4 the median seed-adjusted z-score was inactive: -0.431. With GAUUUUCGCACAAUUGGAATT against PANK3 the median seed-adjusted z-score was inactive: -0.185. In the case of CCCUGUACGUGUACAUCAUTT against MPG, the median seed-adjusted z-score is reported as inactive: -0.0888. With GAAGAUUGCUCAGCGAUUATT against PRPF3 the median seed-adjusted z-score was inactive: -0.289. In the case of GUCCUGAACUGGUCAAUGATT against ZC3H15, the median seed-adjusted z-score is reported as inactive: 0.191. For GAAUGUUGACUCUACUGCATT against POLR3K, the median seed-adjusted z-score was inactive: 0.504. With GUCUACAACUCCACACUGATT against WFS1 the median seed-adjusted z-score was inactive: 0.696. With GGGAGUUUCUAGGAUGAAATT against SLC45A3 the median seed-adjusted z-score was inactive: -0.0257. For GGGACAUGUUUGUGAAGGATT against SDK1, the median seed-adjusted z-score was inactive: 0.604. For GGAGGUCCCAAGAAUCUCATT against ERCC6, the median seed-adjusted z-score was inactive: 0.0421. With GCUUUGUUAUGUAAGCUUATT against ZNF771 the median seed-adjusted z-score was inactive: 0.108. For GCGUAUUAGGAGUCUCAGATT against DTX3L, the median seed-adjusted z-score was inactive: 0.0785. For CGAACCGGAUGGUAGUGUATT against ALOXE3, the median seed-adjusted z-score was inactive: -0.504. For GCAUCAGCUUCGAUGAGUATT against S100A16, the median seed-adjusted z-score was inactive: 0.24. In the case of GGCUCAAGUUCAACGAGUUTT against ARL4C, the median seed-adjusted z-score is reported as inactive: -0.61. For AGAAGGUUAAUUAUUCUGATT against S100A7L2, the median seed-adjusted z-score was inactive: 0.283. For CUGUCUAACUGGAACCGGUTT against APPBP2, the median seed-adjusted z-score was inactive: -0.0432. In the case of GGAAUGCGAUGUCUCCUUATT against HK3, the median seed-adjusted z-score is reported as inactive: 0.0759. In the case of CCACUAUGGUCUUAGUGAATT against SERPINA7, the median seed-adjusted z-score is reported as inactive: 0.0925. For CGACAGGGUAUCCAACUAATT against WASL, the median seed-adjusted z-score was inactive: 0.143. With GGCUUUUGCGUGGAAUUCATT against ZNF600 the median seed-adjusted z-score was inactive: 0.252. For CAGUACUGCUUAUCAGAGATT against PAH, the median seed-adjusted z-score was inactive: 0.487. For GCAGUUAUUUCGUCACUGUTT against NDUFA8, the median seed-adjusted z-score was inactive: -0.752. In the case of CCCUCCCAUUAGUAGCUUUTT against RELT, the median seed-adjusted z-score is reported as inactive: 0.349. For GCGACUAUUAUAUCCAGUUTT against LMTK2, the median seed-adjusted z-score was inactive: -0.565. For GAAUUACCUUUGGAUUCAATT against MORC3, the median seed-adjusted z-score was inactive: 0.245. In the case of CCUUCACAAAGAACCAGAATT against S100A11, the median seed-adjusted z-score is reported as inactive: 0.702. With GAAUAGACCUCAACUAUCUTT against NIT1 the median seed-adjusted z-score was inactive: -0.528. With GCAAGCACAUCGUCGUGUATT against CPT1A the median seed-adjusted z-score was inactive: 0.129. For GAAUAUCCAUGAGAUUUCATT against TIMM9, the median seed-adjusted z-score was inactive: -0.371. In the case of CAGUGGAACUAAAGCCGUUTT against BAT2, the median seed-adjusted z-score is reported as inactive: 0.0889. For UUACCAGCCUGAGAACAUATT against TRIM5, the median seed-adjusted z-score was inactive: 0.0758. With CGUGCAACCCAAAACUACATT against LCN10 the median seed-adjusted z-score was inactive: 0. For CUACCGUUAUGUUUCCCAATT against CDYL, the median seed-adjusted z-score was inactive: 0. With GGAGAUAAACGCAAGGGAATT against BCL2L13 the median seed-adjusted z-score was inactive: 0.311. For CGGUGGAUGUCAAACCCAATT against SALL4, the median seed-adjusted z-score was inactive: -0.344. In the case of GGUUAUCCCAAACUGAUUATT against MMP12, the median seed-adjusted z-score is reported as inactive: 0.0476. In the case of GGAGGAAUGUUGGUUCAGATT against DHRS12, the median seed-adjusted z-score is reported as inactive: 0.118. For GGUAAUGAAUUAAAGAAGATT against CD8A, the median seed-adjusted z-score was inactive: 0.777. In the case of GCUCAUUCAUUGUUCGAGATT against TNS3, the median seed-adjusted z-score is reported as inactive: 0.18. With GCCCUGACAUUUCCCGAAATT against FOXJ2 the median seed-adjusted z-score was inactive: -0.627. For GCUGCUUGUUAUGAUCCUATT against DBR1, the median seed-adjusted z-score was inactive: 0.438. For GCGACAAGACGAGCCUUCATT against ISL2, the median seed-adjusted z-score was inactive: 0.392. In the case of CACAGACUGUUUUAACUGUTT against PPP1CC, the median seed-adjusted z-score is reported as inactive: -0.344. With ACAUCAACAUCAACCCAGATT against YY2 the median seed-adjusted z-score was inactive: 0.363. With CCAUCAGCUUUAGGAUAUATT against RTN4 the median seed-adjusted z-score was inactive: -0.0191. For CUUUUACCAUCCACACGAATT against RBP7, the median seed-adjusted z-score was inactive: 0.0709. In the case of AGGUGUCGUUUGUAAUUCATT against SEPHS1, the median seed-adjusted z-score is reported as inactive: -0.102. In the case of AGGAAACCCUAGACCCAGATT against DHODH, the median seed-adjusted z-score is reported as inactive: -0.422. In the case of GCAUUCACGUAUCCCAGUUTT against ZNF763, the median seed-adjusted z-score is reported as inactive: 0.236. For GACAAGUUUGGAAUAAAUUTT against ME3, the median seed-adjusted z-score was inactive: 0.166. With CUUGCGACCUGUCCAAUUATT against CPSF3 the median seed-adjusted z-score was inactive: -0.918. In the case of CGCAAAAGGCUACCACGAATT against CD300LF, the median seed-adjusted z-score is reported as inactive: -0.264. With UAAUGGGAGUUUACCAUGATT against CALML6 the median seed-adjusted z-score was inactive: 0.0119. In the case of GGGUUACUGUUUAAGGAAATT against GNG12, the median seed-adjusted z-score is reported as inactive: 0.331. With CAUCAUCUCUUUCAACGUATT against BAZ1A the median seed-adjusted z-score was inactive: 0.0896. In the case of GCUGCACGAUUAAUGAAGATT against ADAMTS16, the median seed-adjusted z-score is reported as inactive: -0.133. For GGAAAAUUAGUAAAGAGCATT against UBP1, the median seed-adjusted z-score was inactive: 0.847. For UGGCUAAGGUUGGACAAUATT against NDUFA11, the median seed-adjusted z-score was inactive: -0.722. For GGAGUACCUUUCACAUCUATT against ZBTB2, the median seed-adjusted z-score was inactive: 0.217. In the case of CCAUGUCGCAGAAUGGAUATT against SLC4A11, the median seed-adjusted z-score is reported as inactive: -0.18. With GCAGGACCGAAUUCAGCAATT against OTUB1 the median seed-adjusted z-score was inactive: 0.598. In the case of CCAUCCAAGCCUACAGUUATT against F11R, the median seed-adjusted z-score is reported as inactive: -0.329. For GGAUAGAUGUUUCUAUCAATT against SUZ12, the median seed-adjusted z-score was active: -1.65. For CCAUAACAUUCACAAGUGUTT against TRPS1, the median seed-adjusted z-score was inactive: -0.125. With GGGAUAAGGUGGUCGCUCUTT against ARFGAP1 the median seed-adjusted z-score was inactive: 0.123. With AAAUAUCCUUAGUACAAAATT against NOTCH2NL the median seed-adjusted z-score was inactive: 0.586. For GGAGCCUCUUGGAAGGAGATT against TREM2, the median seed-adjusted z-score was inactive: 0.057. With GGUUUGAGAAGAUCAGCAATT against RRAGA the median seed-adjusted z-score was inactive: 0.511. For GCUGGAGACUAUGUGCUAATT against TP53I3, the median seed-adjusted z-score was inactive: 0.244. With CCUUACUCGUCGGAAAUCATT against PRIC285 the median seed-adjusted z-score was inactive: 0. For GAUCAAACCUUGUAUCUCUTT against ARG2, the median seed-adjusted z-score was inactive: -0.796. With CGACCUCAUUAUCUGGUUUTT against SKIP the median seed-adjusted z-score was inactive: 0.804. With GACUCGUGGUUUGAAGUGATT against ZNRF1 the median seed-adjusted z-score was inactive: -0.808. For GAGCUGACUUUCUGACCAATT against RAB7A, the median seed-adjusted z-score was inactive: 0.169. In the case of GCUGAUACCAGAGCACUGATT against CCR3, the median seed-adjusted z-score is reported as inactive: -0.334. In the case of GGUGUGGUUUUACUAGAAATT against IRAK4, the median seed-adjusted z-score is reported as inactive: -0.288. In the case of CAACCGCAAUUGGAGUUAUTT against KIF5B, the median seed-adjusted z-score is reported as inactive: 0.162. In the case of GUACAGAACCUGGAUGAAATT against SYNPO2L, the median seed-adjusted z-score is reported as inactive: -0.47. For CACUGAGGAUGAACGCAAATT against PIP5K3, the median seed-adjusted z-score was inactive: 0.00523. For GGAGAUUACGAAAGCCUUUTT against RHOBTB1, the median seed-adjusted z-score was inactive: -0.605. For CCUCGAGGAGAUUAACAAATT against NPEPL1, the median seed-adjusted z-score was active: 1.12. With CACUGAUACAGGACAUAGATT against SEMA4G the median seed-adjusted z-score was inactive: 0.188. With GUUGUUUACUUUCCACGAATT against KIF2A the median seed-adjusted z-score was inactive: 0.289. With CGGGAAAAUUUUGUACUGATT against PROZ the median seed-adjusted z-score was inactive: -0.422. In the case of AGAGAAUCUCGAGGAUAUATT against ZNF74, the median seed-adjusted z-score is reported as active: 1.17. In the case of CGAGGCCUGACAUCACUUATT against CHCHD2, the median seed-adjusted z-score is reported as inactive: 0.0884. With CUACCUCGGCCGAAAGCAATT against FOXB2 the median seed-adjusted z-score was inactive: -0.0149. With GAAAUUUGCAGAACCUAGATT against SNX14 the median seed-adjusted z-score was inactive: 0. With CGAUGUGGAUUGAAGCGCATT against HIPK3 the median seed-adjusted z-score was inactive: -0.00424. In the case of CGACCAACCCUUACGACUATT against MYH3, the median seed-adjusted z-score is reported as inactive: -0.113. In the case of GGAAGACUCAUUGAACAUATT against CASP1, the median seed-adjusted z-score is reported as inactive: -0.331. With AGAUAUGGAUUUUAACAAUTT against CAPNS2 the median seed-adjusted z-score was inactive: 0.529. With GACCUAUCGAACUCAGUUATT against SKP2 the median seed-adjusted z-score was inactive: -0.126. In the case of CCAGUGUGCUCAGACGUAATT against KIF4B, the median seed-adjusted z-score is reported as inactive: -0.0753. With GGAGUGGAGCGACUACAAATT against CHRNA2 the median seed-adjusted z-score was inactive: -0.513. With GAGACUUUAUUGAUGCUUATT against CYP2J2 the median seed-adjusted z-score was inactive: 0.00659. For CCCUUACACUAAGCACCAATT against HOXD10, the median seed-adjusted z-score was inactive: -0.374. In the case of GCUUAUUUAUCGAGUCCGATT against RIT1, the median seed-adjusted z-score is reported as inactive: -0.157. For GGAUGAGAAGAGACGUAGATT against DNMT1, the median seed-adjusted z-score was inactive: 0.185. With CUAACUCAUUUGACCAUAUTT against KIF3B the median seed-adjusted z-score was inactive: 0.554. In the case of GCAGUAUCAUCGGAAAGAATT against PCBP2, the median seed-adjusted z-score is reported as inactive: 0. For GGUUCUCAGGAGCACCAGATT against OASL, the median seed-adjusted z-score was active: 1.02. For GUACUGAUCUUAUUGAACATT against ZNF271, the median seed-adjusted z-score was inactive: 0.484.
